{"source": "PubChem BioAssay AID1347076", "about": "(National Center for Advancing Translational Sciences (NCATS), 2019)", "note": "In all, about 400,000 compounds went through this assay and about 13,000 (3.2%) were called active. This list was built around the results that the source calls inconclusive (neither active nor inactive); the mix of calls is not that of the screen. The call rests on the fitted dose curve; in most records, active means well fitted cell-killing curve with a large enough effect; inconclusive means small, poorly fitted or top-dose-only effect, or effect the other way; inactive means flat fitted curve, though single readings scatter. Potencies of inconclusive entries are doubtful fits and often do not repeat. Potency means the concentration at half of the fitted maximal effect.", "data": [{"experiment": "qHTS assay for MDR1-selective chemotherapeutics: Primary screen using the drug-selected MDR subline cells KB-V1; further: nearly all actives have a fitted effect of over 60% in size", "conditions": "KB-V1 MDR cells viability, CellTiter-Glo, 72 h; series mostly up to 46.1 µM", "procedure,_shortened": "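In this primary screen, KB-V1 cells overexpressing P-gp are incubated with library compounds (lowest to highest concentration) for 72 h at 37 degrees C before a luminescent ATP viability read.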", "values": [{"compound": "CCOC(=O)c1c[nH]c2ccc([N+](=O)[O-])cc12", "Potency": "inactive"}, {"compound": "CCN(CC)C(=O)C1=C(C)N(Cc2ccccc2)C(=O)C(CC(=O)NC2CC2)C1", "note": "(configuration not stated)", "Potency": "inactive"}, {"compound": "CC(C)n1c(CNC(=O)c2ccccc2)nc2ccccc21", "Potency": "inactive"}, {"compound": "CCOC(=O)c1c(C)oc2ncnc(N3CCN(c4ccccc4)CC3)c12", "Potency": "inconclusive: 20.6 µM [cytotoxic, single point]"}, {"compound": "CCCCN1C(=O)C(CC(=O)NCc2cccc3ccccc23)CC(C(=O)N2CCCCCC2)=C1C", "note": "(configuration not stated)", "Potency": "active: 9.2 µM"}, {"compound": "CC(c1nnc(SCC(=O)NC(=O)NCc2ccco2)n1-c1ccc(Cl)cc1)N(C)C", "note": "(configuration not stated)", "Potency": "inconclusive: 29.1 µM [cytotoxic, single point]"}, {"compound": "O=C(c1ccc2c(c1)OCO2)C1CCCN(Cc2ccc3cccc(F)c3n2)C1", "note": "(configuration not stated)", "Potency": "inconclusive: 9.2 µM [cytotoxic, partial curve, poor fit]"}, {"compound": "O=C(c1c[nH]c(C(=O)N2CCN(c3ccccc3F)CC2)c1)c1cccc(Cl)c1Cl", "Potency": "active: 20.6 µM"}, {"compound": "O=C(OCC(=O)N1CCN(c2ccccc2)CC1)c1cc(F)c(F)cc1Cl", "Potency": "inconclusive: 14.6 µM [rising, partial curve, poor fit]"}, {"compound": "c1nc(NCCN2CCOCC2)c2sc3nc(N4CCOCC4)c4c(c3c2n1)CCC4", "Potency": "inconclusive: 11.6 µM [cytotoxic, partial curve]"}, {"compound": "O=C(c1cc(-c2cccc(O)c2)on1)N1CCN(C(c2ccccc2)c2ccccc2)CC1", "Potency": "inconclusive: 7.31 µM [cytotoxic, single point]"}, {"compound": "CSc1ccc(CN2CCC(Oc3cccc(C(=O)N4CCCC4)c3)CC2)cc1", "Potency": "inconclusive: 3.66 µM [cytotoxic, partial curve]"}, {"compound": "COC(=O)C1=CN(c2cc(C)cc(C)c2)C=C(C(=O)OC)C1c1ccc(OC)c(O)c1", "Potency": "inconclusive: 20.6 µM [cytotoxic, single point]"}, {"compound": "COc1cc(C(=O)N2CC(=O)Nc3ccccc32)cc(OC)c1OC", "Potency": "inconclusive: 23.1 µM [cytotoxic, single point]"}, {"compound": "Cn1c(=O)c2c(ncn2CC(=O)OCC(=O)NNC(=O)c2ccc(Cl)cc2)n(C)c1=O", "Potency": "inconclusive: 0.082 µM [rising, full curve]"}, {"compound": "O=C(Nc1ccc(N2CCN(C(=O)c3ccco3)CC2)cc1)c1cc(Br)ccc1Cl", "Potency": "active: 2.06 µM"}, {"compound": "C[C@@H]1CN([C@@H](C)CO)C(=O)c2cc(Br)cnc2O[C@H]1CN(C)C(=O)C1CCCCC1", "Potency": "inactive"}, {"compound": "Cc1ccc(C(=O)CCC(=O)N(C)CC(=O)Nc2ccccc2Br)cc1", "Potency": "inconclusive: 18.4 µM [cytotoxic, single point]"}, {"compound": "N#C/C(=C/c1ccc(-c2cc([N+](=O)[O-])ccc2Cl)o1)C(N)=O", "Potency": "active: 11.6 µM"}, {"compound": "Cc1nc(N2CCCC2)ncc1C(=O)N1CCN(c2ccc(Cl)cc2)CC1", "Potency": "inactive"}, {"compound": "Cc1ccc(C)c(-n2cc(-c3ccccc3)nc2SCC(=O)Nc2ccccc2)c1", "Potency": "inconclusive: 20.6 µM [cytotoxic, single point]"}, {"compound": "O=C(Oc1ccc(OC(=O)c2ccco2)c(S(=O)(=O)c2ccc(Cl)cc2)c1)c1ccco1", "Potency": "inconclusive: 23.1 µM [cytotoxic, single point]"}, {"compound": "NS(=O)(=O)c1ccc(CCNC(=O)c2ccc(Cl)c(S(=O)(=O)NCc3ccco3)c2)cc1", "Potency": "inconclusive: 0.0065 µM [rising, full curve, poor fit]"}, {"compound": "CCOC(=O)C1=C(N2CCCCC2)c2cc3c(n2C1=O)CCCC3", "Potency": "inconclusive: 8.2 µM [cytotoxic, partial curve]"}, {"compound": "O=C(CSc1nc2c([nH]c3ccccc32)c(=O)n1-c1ccc(Cl)cc1)N1CCCCCC1", "Potency": "inactive"}, {"compound": "Cc1nc2n(c(=O)c1CCN1CCC(c3noc4cc(F)ccc34)CC1)CCC[C@H]2O", "Potency": "inactive"}, {"compound": "Cc1c(C(=O)OCC(=O)NCCN2C(=O)CSC2=O)oc2c1ccc1ccccc12", "Potency": "active: 23.1 µM"}, {"compound": "CCN(CC)C(=O)C1=C(C)N(CCC2=CCCCC2)C(=O)C(CC(=O)NCc2cccs2)C1", "note": "(configuration not stated)", "Potency": "inconclusive: 13 µM [cytotoxic, partial curve, poor fit]"}, {"compound": "CC(NNC(=S)N1CCN(c2ccccn2)CC1)c1nccc2ccccc12", "note": "(configuration not stated)", "Potency": "active: 0.461 µM"}, {"compound": "CCN(C(=O)COc1ccc(C)cc1OC)c1cccc2ccccc12", "Potency": "active: 11.6 µM"}, {"compound": "O=C(c1ccc2c(c1)OCO2)C1CCCN(Cc2cccn2-c2cccnc2)C1", "note": "(configuration not stated)", "Potency": "inconclusive: 9.2 µM [cytotoxic, partial curve]"}, {"compound": "O=C(NCc1ccc(F)cc1)C1CCCN1C(=O)Nc1cccc(F)c1", "note": "(configuration not stated)", "Potency": "inactive"}, {"compound": "CCO[C@H]1C[C@@H](c2ccc(CC)cc2)N(S(=O)(=O)c2ccc(C)cc2)C2CC(c3ccc(CC)cc3)N(S(=O)(=O)c3ccc(C)cc3)CC21", "note": "(some centres not stated)", "Potency": "inactive"}, {"compound": "CCOC(=O)c1c(-c2ccccc2)oc2ccc(O)c(CN3CCCC3)c12", "Potency": "inconclusive: 12.6 µM [cytotoxic, partial curve, poor fit]"}, {"compound": "Cc1cc(=O)oc2cc(OCC(=O)OCc3nnc(-c4ccccc4)o3)ccc12", "Potency": "inconclusive: 20.6 µM [rising, partial curve, poor fit]"}, {"compound": "O=C(O)c1c[nH]c2nccnc12", "Potency": "inconclusive: 23.1 µM [rising, single point]"}, {"compound": "COc1cc(C(=O)N=c2sc3c(C)ccc(OC)c3n2C)cc(OC)c1OC", "Potency": "inactive"}, {"compound": "O=C(O)c1ccccc1/C=N/Nc1ccc(S(=O)(=O)N2CCCC2)cc1[N+](=O)[O-]", "Potency": "inconclusive: 18.4 µM [cytotoxic, single point]"}, {"compound": "CCCCOc1cc(C(=O)OCCN(CC)CC)ccc1N", "Potency": "inconclusive: 16.4 µM [cytotoxic, single point]"}, {"compound": "Cc1ccc(Cl)cc1N1CCN(C(=O)CCS(=O)(=O)c2cccc3nonc23)CC1", "Potency": "inconclusive: 5.8 µM [cytotoxic, full curve]"}, {"compound": "COc1cccc(NC(=O)COC(=O)c2ccc3c(c2)OCO3)c1", "Potency": "inconclusive: 20.6 µM [rising, partial curve, poor fit]"}, {"compound": "O=C(Oc1ccc(C(=S)N2CCCCC2)cc1)c1ccccc1F", "Potency": "inconclusive: 20.6 µM [rising, single point]"}]}]}
